Results published in the supplement of paper PMC10849652.
Some of the results follow.

Chains of the proteins cited; added tags and fusions are not shown. Lines headed by an entry give the natural chain unless they say otherwise; changes in a name come on top.
UniProt Q8N6S5: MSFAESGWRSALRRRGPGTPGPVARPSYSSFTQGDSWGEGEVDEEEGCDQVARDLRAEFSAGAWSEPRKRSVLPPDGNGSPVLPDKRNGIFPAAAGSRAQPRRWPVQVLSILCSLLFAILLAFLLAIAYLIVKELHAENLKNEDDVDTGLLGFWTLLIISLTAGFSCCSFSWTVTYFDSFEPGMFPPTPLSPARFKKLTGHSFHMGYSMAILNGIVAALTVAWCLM
UniProt Q8N2F6: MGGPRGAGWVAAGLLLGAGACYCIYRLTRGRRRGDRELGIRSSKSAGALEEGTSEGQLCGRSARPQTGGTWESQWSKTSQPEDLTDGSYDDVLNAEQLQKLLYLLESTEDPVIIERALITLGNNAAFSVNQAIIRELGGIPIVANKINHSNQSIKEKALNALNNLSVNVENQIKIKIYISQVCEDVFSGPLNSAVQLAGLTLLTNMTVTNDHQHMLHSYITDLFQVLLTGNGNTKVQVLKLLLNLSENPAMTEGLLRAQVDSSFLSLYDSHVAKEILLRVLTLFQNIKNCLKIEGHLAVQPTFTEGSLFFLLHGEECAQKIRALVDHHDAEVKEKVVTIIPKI
UniProt Q7Z3C6: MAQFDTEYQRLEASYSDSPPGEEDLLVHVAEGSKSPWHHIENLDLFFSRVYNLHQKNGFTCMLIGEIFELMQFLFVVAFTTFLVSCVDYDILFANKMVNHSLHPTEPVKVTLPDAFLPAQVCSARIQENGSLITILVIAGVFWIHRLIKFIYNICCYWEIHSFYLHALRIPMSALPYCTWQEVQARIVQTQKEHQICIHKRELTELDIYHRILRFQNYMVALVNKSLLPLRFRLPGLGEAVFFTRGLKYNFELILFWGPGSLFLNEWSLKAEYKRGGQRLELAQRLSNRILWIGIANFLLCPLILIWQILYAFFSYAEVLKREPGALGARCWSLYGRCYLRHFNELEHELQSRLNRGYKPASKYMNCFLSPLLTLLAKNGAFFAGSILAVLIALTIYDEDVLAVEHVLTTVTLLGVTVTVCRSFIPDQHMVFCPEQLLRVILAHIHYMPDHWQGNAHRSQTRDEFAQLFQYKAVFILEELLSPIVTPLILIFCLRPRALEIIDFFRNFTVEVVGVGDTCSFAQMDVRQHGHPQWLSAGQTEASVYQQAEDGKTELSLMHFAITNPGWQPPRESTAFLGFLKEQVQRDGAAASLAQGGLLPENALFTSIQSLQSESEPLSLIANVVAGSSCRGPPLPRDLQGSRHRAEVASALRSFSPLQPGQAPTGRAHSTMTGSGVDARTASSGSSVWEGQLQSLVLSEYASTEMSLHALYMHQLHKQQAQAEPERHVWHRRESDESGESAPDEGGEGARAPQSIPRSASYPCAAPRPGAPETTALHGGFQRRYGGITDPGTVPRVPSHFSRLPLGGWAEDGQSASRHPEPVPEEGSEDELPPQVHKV
UniProt Q8NHH9: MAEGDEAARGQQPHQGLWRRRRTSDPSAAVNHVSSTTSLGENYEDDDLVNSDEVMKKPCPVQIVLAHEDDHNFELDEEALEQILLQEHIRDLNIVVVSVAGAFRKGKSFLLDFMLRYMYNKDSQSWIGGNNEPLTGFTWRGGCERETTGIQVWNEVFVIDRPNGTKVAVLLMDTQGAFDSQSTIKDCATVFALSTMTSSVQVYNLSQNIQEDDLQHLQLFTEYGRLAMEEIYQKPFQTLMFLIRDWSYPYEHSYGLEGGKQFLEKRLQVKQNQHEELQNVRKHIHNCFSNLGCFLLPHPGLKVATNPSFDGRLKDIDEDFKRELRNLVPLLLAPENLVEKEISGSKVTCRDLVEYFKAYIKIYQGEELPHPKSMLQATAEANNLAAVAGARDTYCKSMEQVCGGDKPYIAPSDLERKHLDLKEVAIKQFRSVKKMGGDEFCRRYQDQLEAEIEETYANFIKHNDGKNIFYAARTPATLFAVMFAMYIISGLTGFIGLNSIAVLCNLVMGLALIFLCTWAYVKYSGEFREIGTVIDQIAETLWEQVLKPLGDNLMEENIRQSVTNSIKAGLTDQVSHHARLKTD
UniProt Q9H7F0: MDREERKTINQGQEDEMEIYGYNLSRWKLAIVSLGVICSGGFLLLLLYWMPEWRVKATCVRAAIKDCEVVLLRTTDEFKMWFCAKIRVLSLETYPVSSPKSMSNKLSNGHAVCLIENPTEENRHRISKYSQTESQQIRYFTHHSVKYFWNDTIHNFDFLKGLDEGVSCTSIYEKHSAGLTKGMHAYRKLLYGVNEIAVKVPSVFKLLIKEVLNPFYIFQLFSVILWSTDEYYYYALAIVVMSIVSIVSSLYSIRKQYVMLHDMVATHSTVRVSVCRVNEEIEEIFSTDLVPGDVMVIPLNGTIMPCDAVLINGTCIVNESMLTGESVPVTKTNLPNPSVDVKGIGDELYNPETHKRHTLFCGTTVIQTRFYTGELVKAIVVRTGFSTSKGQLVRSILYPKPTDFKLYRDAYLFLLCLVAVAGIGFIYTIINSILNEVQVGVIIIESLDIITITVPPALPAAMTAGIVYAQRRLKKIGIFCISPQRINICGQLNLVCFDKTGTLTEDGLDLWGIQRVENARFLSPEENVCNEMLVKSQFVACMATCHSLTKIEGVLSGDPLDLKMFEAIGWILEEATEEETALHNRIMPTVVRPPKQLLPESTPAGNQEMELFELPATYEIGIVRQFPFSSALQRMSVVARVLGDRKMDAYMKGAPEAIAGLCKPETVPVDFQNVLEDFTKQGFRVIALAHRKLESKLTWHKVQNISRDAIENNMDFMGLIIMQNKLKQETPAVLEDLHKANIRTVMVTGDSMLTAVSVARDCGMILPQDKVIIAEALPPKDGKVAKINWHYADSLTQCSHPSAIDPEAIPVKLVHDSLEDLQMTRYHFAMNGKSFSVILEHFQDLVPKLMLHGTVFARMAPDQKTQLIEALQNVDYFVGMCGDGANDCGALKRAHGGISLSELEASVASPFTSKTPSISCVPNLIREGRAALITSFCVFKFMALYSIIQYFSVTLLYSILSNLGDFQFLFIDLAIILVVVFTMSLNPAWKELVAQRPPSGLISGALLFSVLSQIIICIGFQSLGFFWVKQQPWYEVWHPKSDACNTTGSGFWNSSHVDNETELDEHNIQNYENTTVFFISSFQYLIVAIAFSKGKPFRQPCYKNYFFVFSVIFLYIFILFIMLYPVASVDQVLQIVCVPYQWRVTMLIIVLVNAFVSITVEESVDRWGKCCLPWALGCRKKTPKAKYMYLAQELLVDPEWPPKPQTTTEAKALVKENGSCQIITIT
UniProt Q9Y487, whole entry, looked up: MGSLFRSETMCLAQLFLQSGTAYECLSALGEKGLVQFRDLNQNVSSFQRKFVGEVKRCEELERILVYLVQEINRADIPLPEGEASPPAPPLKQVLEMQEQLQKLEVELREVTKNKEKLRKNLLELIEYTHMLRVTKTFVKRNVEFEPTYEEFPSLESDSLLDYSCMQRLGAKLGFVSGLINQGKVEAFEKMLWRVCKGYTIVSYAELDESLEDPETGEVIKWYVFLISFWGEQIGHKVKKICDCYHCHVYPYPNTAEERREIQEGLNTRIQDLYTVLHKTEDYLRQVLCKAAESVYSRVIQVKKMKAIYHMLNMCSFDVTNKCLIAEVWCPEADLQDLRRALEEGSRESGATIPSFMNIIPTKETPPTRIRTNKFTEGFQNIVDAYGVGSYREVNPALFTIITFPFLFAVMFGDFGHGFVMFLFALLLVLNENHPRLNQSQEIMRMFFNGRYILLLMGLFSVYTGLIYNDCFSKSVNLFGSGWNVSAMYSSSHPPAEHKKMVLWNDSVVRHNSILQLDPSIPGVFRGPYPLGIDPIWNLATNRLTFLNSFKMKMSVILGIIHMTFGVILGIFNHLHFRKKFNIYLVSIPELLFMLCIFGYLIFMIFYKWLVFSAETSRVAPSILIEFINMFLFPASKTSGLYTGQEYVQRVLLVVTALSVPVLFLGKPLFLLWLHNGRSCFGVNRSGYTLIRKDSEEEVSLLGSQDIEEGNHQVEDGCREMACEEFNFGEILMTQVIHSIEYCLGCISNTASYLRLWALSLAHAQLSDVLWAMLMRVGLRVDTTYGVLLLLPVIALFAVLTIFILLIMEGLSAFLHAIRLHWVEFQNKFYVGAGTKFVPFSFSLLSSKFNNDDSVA
UniProt Q9Y4P1: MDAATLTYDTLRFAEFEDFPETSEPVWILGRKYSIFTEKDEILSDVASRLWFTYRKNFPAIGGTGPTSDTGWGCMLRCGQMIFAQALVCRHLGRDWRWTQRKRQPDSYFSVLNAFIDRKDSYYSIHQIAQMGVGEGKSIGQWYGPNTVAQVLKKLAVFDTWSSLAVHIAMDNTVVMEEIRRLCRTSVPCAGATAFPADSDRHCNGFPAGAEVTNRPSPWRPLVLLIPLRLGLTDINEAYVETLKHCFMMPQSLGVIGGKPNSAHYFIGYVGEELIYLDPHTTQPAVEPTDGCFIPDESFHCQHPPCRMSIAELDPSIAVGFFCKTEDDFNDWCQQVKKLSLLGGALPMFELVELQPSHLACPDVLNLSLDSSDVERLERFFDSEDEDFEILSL
UniProt O43861: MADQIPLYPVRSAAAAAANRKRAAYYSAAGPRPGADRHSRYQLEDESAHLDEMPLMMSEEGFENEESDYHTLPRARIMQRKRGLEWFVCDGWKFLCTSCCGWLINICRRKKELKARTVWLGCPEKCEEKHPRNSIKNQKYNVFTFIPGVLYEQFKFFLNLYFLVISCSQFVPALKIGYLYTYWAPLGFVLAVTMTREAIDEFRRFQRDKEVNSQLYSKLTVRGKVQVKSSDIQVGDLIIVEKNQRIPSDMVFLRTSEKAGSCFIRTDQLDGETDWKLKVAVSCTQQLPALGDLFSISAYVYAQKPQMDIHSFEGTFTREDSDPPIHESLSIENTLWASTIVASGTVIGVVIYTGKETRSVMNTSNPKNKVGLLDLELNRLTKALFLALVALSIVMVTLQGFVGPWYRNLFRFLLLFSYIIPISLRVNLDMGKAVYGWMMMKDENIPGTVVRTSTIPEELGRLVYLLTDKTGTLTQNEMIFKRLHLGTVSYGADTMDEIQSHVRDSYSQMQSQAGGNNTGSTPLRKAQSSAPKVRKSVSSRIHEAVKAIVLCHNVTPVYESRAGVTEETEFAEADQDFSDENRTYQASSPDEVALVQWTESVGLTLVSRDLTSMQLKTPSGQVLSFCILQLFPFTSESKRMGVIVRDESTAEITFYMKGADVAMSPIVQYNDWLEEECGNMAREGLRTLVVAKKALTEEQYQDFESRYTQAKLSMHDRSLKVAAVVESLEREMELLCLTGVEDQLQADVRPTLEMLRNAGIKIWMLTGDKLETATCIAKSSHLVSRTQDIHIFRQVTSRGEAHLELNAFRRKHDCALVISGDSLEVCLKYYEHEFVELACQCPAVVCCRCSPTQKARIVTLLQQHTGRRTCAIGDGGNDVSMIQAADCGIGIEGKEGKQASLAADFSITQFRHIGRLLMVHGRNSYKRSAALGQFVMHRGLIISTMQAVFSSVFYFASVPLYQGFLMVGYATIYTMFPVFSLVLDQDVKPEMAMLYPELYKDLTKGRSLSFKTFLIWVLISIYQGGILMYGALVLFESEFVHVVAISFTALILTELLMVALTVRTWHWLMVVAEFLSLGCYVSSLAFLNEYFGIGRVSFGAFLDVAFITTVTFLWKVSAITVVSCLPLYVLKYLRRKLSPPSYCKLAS
UniProt P36405: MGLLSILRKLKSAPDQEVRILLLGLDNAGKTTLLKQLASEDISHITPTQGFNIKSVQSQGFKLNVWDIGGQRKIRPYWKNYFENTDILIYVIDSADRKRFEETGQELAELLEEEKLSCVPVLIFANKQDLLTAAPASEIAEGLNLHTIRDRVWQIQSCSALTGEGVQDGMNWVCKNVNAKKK
UniProt O95352: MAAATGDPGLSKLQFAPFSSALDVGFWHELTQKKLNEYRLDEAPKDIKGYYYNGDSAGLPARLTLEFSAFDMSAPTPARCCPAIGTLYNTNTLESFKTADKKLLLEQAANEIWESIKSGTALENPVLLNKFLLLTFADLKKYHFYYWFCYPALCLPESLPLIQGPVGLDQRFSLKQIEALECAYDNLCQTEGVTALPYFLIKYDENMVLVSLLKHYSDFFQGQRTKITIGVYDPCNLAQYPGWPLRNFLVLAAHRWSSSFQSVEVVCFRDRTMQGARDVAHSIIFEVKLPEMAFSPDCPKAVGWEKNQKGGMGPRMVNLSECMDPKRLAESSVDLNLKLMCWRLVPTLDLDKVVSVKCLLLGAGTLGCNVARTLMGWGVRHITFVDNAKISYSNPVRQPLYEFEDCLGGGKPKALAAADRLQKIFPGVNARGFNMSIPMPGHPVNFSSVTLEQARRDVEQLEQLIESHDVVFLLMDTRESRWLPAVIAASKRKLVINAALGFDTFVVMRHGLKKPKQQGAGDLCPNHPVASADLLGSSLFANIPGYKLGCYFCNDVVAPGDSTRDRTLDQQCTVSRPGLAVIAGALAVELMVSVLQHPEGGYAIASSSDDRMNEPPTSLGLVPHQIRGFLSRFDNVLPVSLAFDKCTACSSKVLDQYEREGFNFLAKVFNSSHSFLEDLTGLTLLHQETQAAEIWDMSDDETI

Key:
Assay in all cases: log2 fold change, soluble protein after heating vs DMSO (PISA); higher = thermal stabilisation; K562 cells, 10 uM, 30 min; active = over 0.2 and 3.5 SD of the protein, either way, in both replicates (recomputed)
[1] = compound: CC[C@@H]1C(=O)N(C)c2cnc(Nc3ccc(C(=O)NC4CCN(C)CC4)cc3OC)nc2N1C1CCCC1
Outline: (§1)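 Thermal stability values are relative to control samples and come from duplicates. They are expressed as log2 fold changes. For measurement, K562 cells (2×10^6 cells/mL) received 10 μM compound for 30 min, and aliquots were heated for 3 min over 48°C-58°C, pooled, and extracted at 4°C in PBS with 0.5% NP-40. Soluble protein, the supernatant after 21,000xg for 90 min, was quantified by TMTpro 16plex LC-MS/MS with equalised channel sums.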

volasertib = compound: CC[C@@H]1C(=O)N(C)c2cnc(Nc3ccc(C(=O)N[C@H]4CC[C@H](N5CCN(CC6CC6)CC5)CC4)cc3OC)nc2N1C(C)C [volasertib]
Outline: as §1

[2] = compound: CC[C@H](C)N1C=C(C2=C(C=C(C=C21)C3=CN=C(C=C3)N4CCNCC4)C(=O)NCC5=C(C=C(NC5=O)C)C)C
Outline: as §1

epoxomicin = compound: CC[C@H](C)[C@@H](C(=O)N[C@@H]([C@@H](C)O)C(=O)N[C@@H](CC(C)C)C(=O)[C@]1(CO1)C)NC(=O)[C@H]([C@@H](C)CC)N(C)C(=O)C [epoxomicin]
Outline: as §1

[3] = compound: CCn1cc(-c2ccnc3[nH]c(-c4cccc(CN(C)C)c4)cc23)c(-c2ccc(NC(=O)N(C)C)cc2)n1
Outline: as §1

[4] = compound: CN(C)CC(=O)Nc1ccc2[nH]c(=O)c3ccccc3c2c1
Outline: as §1

[5] = compound: CN1C2=C(C3=C1C(=O)N(N=C3)CC4=CC(=CC=C4)N)SC(=C2)S(=O)C
Outline: as §1

[6] = compound: CN1CCC(CNc2ccc3ncc(-c4cccc(OC(F)(F)F)c4)n3n2)CC1
Outline: as §1

saracatinib = compound: CN1CCN(CCOc2cc(OC3CCOCC3)c3c(Nc4c(Cl)ccc5c4OCO5)ncnc3c2)CC1 [saracatinib]
Outline: as §1

sotrastaurin = compound: CN1CCN(c2nc(C3=C(c4c[nH]c5ccccc45)C(=O)NC3=O)c3ccccc3n2)CC1 [sotrastaurin]
Outline: as §1

Tubastatin A = compound: CN1CCc2c(c3ccccc3n2Cc2ccc(C(=O)NO)cc2)C1 [Tubastatin A]
Outline: as §1

[7] = compound: CNC(=O)C1=CC=CC=C1NC2=NC(=NC=C2Cl)NC3=C(C=C(C=C3)N4CCOCC4)OC
Outline: as §1

defactinib = compound: CNC(=O)c1ccc(Nc2ncc(C(F)(F)F)c(NCc3nccnc3N(C)S(C)(=O)=O)n2)cc1 [defactinib]
Outline: as §1

rucaparib = compound: CNCc1ccc(-c2[nH]c3cc(F)cc4c3c2CCNC4=O)cc1 [rucaparib]
Outline: as §1

[8] = compound: CNc1nc(-c2ccc3c(N)n[nH]c3c2)cc(N2C[C@@H](C(=O)NC3CCCCC3)CC[C@H]2C)n1
Outline: as §1

encorafenib = compound: COC(=O)N[C@@H](C)CNc1nccc(-c2cn(C(C)C)nc2-c2cc(Cl)cc(NS(C)(=O)=O)c2F)n1 [encorafenib]
Outline: as §1

[9] = compound: COC(=O)[C@H](CCSC)NC(=O)C1=C(C=C(C=C1)NC[C@H](CS)N)C2=CC=CC=C2
Outline: as §1

[10] = compound: CCn1c(C(=O)N(C2CC2)C2CC2)cc2c3c(ncn3C)c(Nc3cc(C)n(C)n3)nc21
Outline: as §1

rosiglitazone = compound: CN(CCOC1=CC=C(C=C1)C[C@H]2C(=O)NC(=O)S2)C3=CC=CC=N3 (racemic) [rosiglitazone]
Outline: as §1

alvocidib = compound: CN1CC[C@H](c2c(O)cc(O)c3c(=O)cc(-c4ccccc4Cl)oc23)[C@H](O)C1 [alvocidib]
Outline: as §1

Target	log2 fold change [1]	log2 fold change (volasertib)	log2 fold change [2]	log2 fold change (epoxomicin)	log2 fold change [3]	log2 fold change [4]	log2 fold change [5]	log2 fold change [6]	log2 fold change (saracatinib)	log2 fold change (sotrastaurin)	log2 fold change (Tubastatin A)	log2 fold change [7]	log2 fold change (defactinib)	log2 fold change (rucaparib)	log2 fold change [8]	log2 fold change (encorafenib)	log2 fold change [9]	log2 fold change [10]	log2 fold change (rosiglitazone)	log2 fold change (alvocidib)
ATP13A2 (UniProt Q9NQ11)	inactive: -0.141	inactive: -0.103	inactive: -0.074	inactive: 0.003	inactive: -0.031	inactive: -0.002	inactive: 0.058	active: -0.509	inactive: 0.061	inactive: 0.036	inactive: 0.026	inactive: 0.015	inactive: -0.116	inactive: 0	inactive: 0.039	inactive: -0.027	inactive: 0.026	–	–	–
ARL6IP6 (UniProt Q8N6S5)	inactive: 0.154	inactive: -0.007	inactive: -0.043	inactive: -0.086	inactive: 0.004	inactive: 0.004	inactive: 0.029	inactive: 0.01	inactive: 0.192	inactive: 0.005	inactive: -0.014	inactive: -0.099	inactive: -0.053	inactive: 0.009	inactive: 0.004	inactive: 0.015	inactive: -0.035	–	–	–
ARMC10 (UniProt Q8N2F6)	inactive: -0.062	active: -0.333	inactive: 0.075	inactive: 0.022	inactive: -0.008	inactive: 0.062	inactive: 0.002	inactive: -0.044	inactive: 0.012	inactive: -0.123	inactive: 0.109	inactive: 0.079	inactive: -0.03	inactive: 0.157	inactive: 0.006	inactive: 0.142	inactive: -0.049	–	–	–
ATG9A (UniProt Q7Z3C6)	inactive: -0.019	active: -0.326	inactive: 0.027	inactive: -0.007	inactive: -0.06	inactive: 0.018	inactive: 0.058	inactive: -0.118	inactive: 0.016	inactive: -0.084	inactive: 0.067	inactive: -0.029	inactive: -0.09	inactive: -0.008	inactive: -0.052	inactive: 0.055	inactive: -0.013	–	–	–
ATL2 (UniProt Q8NHH9)	inactive: 0.031	inactive: 0.037	inactive: 0.066	inactive: 0.092	inactive: -0.127	inactive: 0.028	inactive: -0.078	inactive: -0.032	inactive: -0.032	inactive: 0.05	inactive: 0.047	inactive: 0.005	inactive: 0.008	inactive: 0.019	inactive: 0.035	inactive: 0.005	inactive: 0.008	–	–	–
ATP13A3 (UniProt Q9H7F0)	inactive: -0.085	inactive: 0.077	inactive: 0.016	inactive: 0	inactive: -0.022	inactive: -0.012	inactive: -0.011	active: -0.401	inactive: -0.029	inactive: 0.048	inactive: 0.002	inactive: -0.005	inactive: -0.014	inactive: 0.091	inactive: 0.013	inactive: 0.037	inactive: 0.037	–	–	–
ARPC4 isoform 3 (UniProt P59998)	inactive: 0.038	inactive: 0.049	inactive: -0.055	inactive: 0.021	inactive: 0.004	inactive: -0.025	inactive: -0.039	inactive: 0.064	inactive: 0.044	inactive: 0.023	inactive: 0	inactive: 0.003	inactive: 0.021	inactive: -0.054	inactive: -0.122	inactive: 0	inactive: 0.03	inactive: 0.043	inactive: 0.007	inactive: 0
ATP1A1 (UniProt P05023)	inactive: 0.058	inactive: 0.059	inactive: -0.029	inactive: -0.025	inactive: -0.026	inactive: -0.009	inactive: -0.053	active: 0.26	inactive: 0.046	inactive: 0.039	inactive: -0.026	inactive: -0.026	inactive: -0.024	inactive: -0.009	inactive: 0.011	inactive: -0.001	inactive: 0.014	–	–	–
ATP6V0A1 isoform 3 (UniProt Q93050)	inactive: -0.056	inactive: 0.174	inactive: -0.01	inactive: 0.044	inactive: -0.054	inactive: -0.009	inactive: 0.239	inactive: -0.137	inactive: -0.253	inactive: -0.236	inactive: 0.089	inactive: -0.052	inactive: 0.125	inactive: 0.154	inactive: 0.032	inactive: 0.196	inactive: -0.02	–	–	–
ATP6V0A2 (UniProt Q9Y487)	inactive: -0.039	inactive: -0.039	inactive: 0.067	inactive: 0.043	inactive: 0.028	inactive: -0.034	inactive: 0.006	inactive: -0.169	inactive: -0.009	inactive: -0.07	inactive: 0.061	inactive: -0.003	inactive: 0.019	inactive: -0.003	inactive: -0.021	inactive: 0.043	inactive: -0.039	–	–	–
ARRDC1 (UniProt Q8N5I2)	inactive: -0.063	inactive: -0.137	inactive: -0.09	inactive: -0.057	inactive: 0	inactive: 0.023	inactive: -0.038	inactive: 0.027	inactive: 0.17	inactive: -0.026	inactive: 0.004	inactive: -0.06	inactive: -0.046	inactive: 0.075	inactive: -0.02	inactive: -0.01	inactive: -0.006	–	–	–
ATG4B isoform 2 (UniProt Q9Y4P1)	inactive: -0.007	inactive: -0.441	inactive: 0.16	inactive: -0.013	inactive: 0.039	inactive: 0.08	inactive: 0.1	inactive: -0.302	inactive: -0.186	inactive: -0.297	inactive: 0.02	inactive: 0.027	inactive: -0.263	inactive: -0.02	inactive: 0.004	inactive: -0.003	inactive: -0.04	–	–	–
ATAD3B (UniProt Q5T9A4)	inactive: -0.076	inactive: -0.167	inactive: 0.093	inactive: -0.045	inactive: 0.112	inactive: -0.026	inactive: 0.167	active: -0.339	inactive: -0.047	inactive: -0.101	inactive: -0.009	inactive: -0.084	inactive: 0.096	inactive: 0.25	inactive: 0	inactive: 0.125	inactive: 0.033	–	–	–
ARPC5 (UniProt O15511)	inactive: 0.051	inactive: 0.014	inactive: -0.026	inactive: 0.012	inactive: 0.025	inactive: 0.003	inactive: 0.032	inactive: -0.029	inactive: -0.048	inactive: 0.004	inactive: -0.012	inactive: 0.026	inactive: 0.004	inactive: -0.043	inactive: -0.103	inactive: -0.026	inactive: -0.019	inactive: 0.005	inactive: -0.017	inactive: 0.03
ATP9B (UniProt O43861)	inactive: -0.002	inactive: -0.15	inactive: -0.125	inactive: 0.055	inactive: -0.023	inactive: 0.013	inactive: 0.013	inactive: -0.109	inactive: 0.13	inactive: -0.185	inactive: -0.055	inactive: -0.02	inactive: -0.025	inactive: 0.081	inactive: -0.027	inactive: 0.058	inactive: 0.06	–	–	–
ARL3 (UniProt P36405)	inactive: 0.036	inactive: 0.046	inactive: 0.001	inactive: -0.01	inactive: -0.005	inactive: -0.014	inactive: -0.098	inactive: -0.018	inactive: 0.021	inactive: -0.008	inactive: -0.012	inactive: -0.025	inactive: -0.025	inactive: -0.033	inactive: -0.035	inactive: -0.022	inactive: 0.022	–	–	–
ATG7 (UniProt O95352)	inactive: 0.006	inactive: -0.073	inactive: 0.031	inactive: 0.004	inactive: -0.023	inactive: 0.076	inactive: -0.04	inactive: 0.023	inactive: 0.012	inactive: -0.002	inactive: 0.04	inactive: -0.003	inactive: -0.017	inactive: -0.017	inactive: 0.036	inactive: 0.04	inactive: -0.007	inactive: -0.026	inactive: 0.024	inactive: -0.121

Two records picked at random from those above, as already listed:
Target	log2 fold change [1]	log2 fold change (volasertib)	log2 fold change [2]	log2 fold change (epoxomicin)	log2 fold change [3]	log2 fold change [4]	log2 fold change [5]	log2 fold change [6]	log2 fold change (saracatinib)	log2 fold change (sotrastaurin)	log2 fold change (Tubastatin A)	log2 fold change [7]	log2 fold change (defactinib)	log2 fold change (rucaparib)	log2 fold change [8]	log2 fold change (encorafenib)	log2 fold change [9]	log2 fold change [10]	log2 fold change (rosiglitazone)	log2 fold change (alvocidib)
ATG4B isoform 2 (UniProt Q9Y4P1)	inactive: -0.007	inactive: -0.441	inactive: 0.16	inactive: -0.013	inactive: 0.039	inactive: 0.08	inactive: 0.1	inactive: -0.302	inactive: -0.186	inactive: -0.297	inactive: 0.02	inactive: 0.027	inactive: -0.263	inactive: -0.02	inactive: 0.004	inactive: -0.003	inactive: -0.04	–	–	–
ARL6IP6 (UniProt Q8N6S5)	inactive: 0.154	inactive: -0.007	inactive: -0.043	inactive: -0.086	inactive: 0.004	inactive: 0.004	inactive: 0.029	inactive: 0.01	inactive: 0.192	inactive: 0.005	inactive: -0.014	inactive: -0.099	inactive: -0.053	inactive: 0.009	inactive: 0.004	inactive: 0.015	inactive: -0.035	–	–	–
